Among the data in US20030049831A1 are binding values, retold here.

Amino acid sequences for entries named in this document (tags omitted). A change or cut given only in a name is not applied to a line headed by its entry. Residues count along the entry.
UniProt P08603, residues 19-1231: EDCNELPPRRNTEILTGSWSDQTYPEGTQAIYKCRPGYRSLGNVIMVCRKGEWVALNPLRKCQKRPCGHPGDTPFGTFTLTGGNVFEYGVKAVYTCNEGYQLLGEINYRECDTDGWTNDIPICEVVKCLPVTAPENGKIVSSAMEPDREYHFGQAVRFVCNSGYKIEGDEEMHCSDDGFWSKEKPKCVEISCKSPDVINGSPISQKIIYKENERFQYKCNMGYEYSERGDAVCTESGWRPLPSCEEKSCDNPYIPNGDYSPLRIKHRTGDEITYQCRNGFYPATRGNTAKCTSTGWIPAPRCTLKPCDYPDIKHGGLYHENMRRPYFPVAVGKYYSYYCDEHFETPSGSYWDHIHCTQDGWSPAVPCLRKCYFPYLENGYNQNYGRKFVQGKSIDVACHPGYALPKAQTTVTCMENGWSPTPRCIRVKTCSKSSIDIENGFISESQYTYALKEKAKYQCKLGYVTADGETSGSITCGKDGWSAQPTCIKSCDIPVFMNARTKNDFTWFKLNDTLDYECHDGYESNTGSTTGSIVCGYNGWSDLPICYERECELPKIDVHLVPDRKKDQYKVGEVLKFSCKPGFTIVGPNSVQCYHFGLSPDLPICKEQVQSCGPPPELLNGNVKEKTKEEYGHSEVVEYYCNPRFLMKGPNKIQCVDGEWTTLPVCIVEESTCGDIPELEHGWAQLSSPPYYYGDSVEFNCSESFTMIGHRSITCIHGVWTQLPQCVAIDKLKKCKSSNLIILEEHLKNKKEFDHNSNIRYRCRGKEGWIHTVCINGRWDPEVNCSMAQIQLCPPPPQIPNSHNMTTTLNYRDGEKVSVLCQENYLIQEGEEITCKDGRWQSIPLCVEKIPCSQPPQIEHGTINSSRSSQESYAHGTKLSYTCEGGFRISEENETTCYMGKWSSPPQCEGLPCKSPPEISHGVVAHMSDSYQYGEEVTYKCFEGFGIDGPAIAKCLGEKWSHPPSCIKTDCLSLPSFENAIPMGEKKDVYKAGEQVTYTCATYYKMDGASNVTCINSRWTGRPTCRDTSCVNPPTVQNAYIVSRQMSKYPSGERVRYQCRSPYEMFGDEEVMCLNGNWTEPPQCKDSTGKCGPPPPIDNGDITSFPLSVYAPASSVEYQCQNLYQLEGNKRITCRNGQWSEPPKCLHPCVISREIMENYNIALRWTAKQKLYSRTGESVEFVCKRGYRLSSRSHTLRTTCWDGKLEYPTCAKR
UniProt P01024: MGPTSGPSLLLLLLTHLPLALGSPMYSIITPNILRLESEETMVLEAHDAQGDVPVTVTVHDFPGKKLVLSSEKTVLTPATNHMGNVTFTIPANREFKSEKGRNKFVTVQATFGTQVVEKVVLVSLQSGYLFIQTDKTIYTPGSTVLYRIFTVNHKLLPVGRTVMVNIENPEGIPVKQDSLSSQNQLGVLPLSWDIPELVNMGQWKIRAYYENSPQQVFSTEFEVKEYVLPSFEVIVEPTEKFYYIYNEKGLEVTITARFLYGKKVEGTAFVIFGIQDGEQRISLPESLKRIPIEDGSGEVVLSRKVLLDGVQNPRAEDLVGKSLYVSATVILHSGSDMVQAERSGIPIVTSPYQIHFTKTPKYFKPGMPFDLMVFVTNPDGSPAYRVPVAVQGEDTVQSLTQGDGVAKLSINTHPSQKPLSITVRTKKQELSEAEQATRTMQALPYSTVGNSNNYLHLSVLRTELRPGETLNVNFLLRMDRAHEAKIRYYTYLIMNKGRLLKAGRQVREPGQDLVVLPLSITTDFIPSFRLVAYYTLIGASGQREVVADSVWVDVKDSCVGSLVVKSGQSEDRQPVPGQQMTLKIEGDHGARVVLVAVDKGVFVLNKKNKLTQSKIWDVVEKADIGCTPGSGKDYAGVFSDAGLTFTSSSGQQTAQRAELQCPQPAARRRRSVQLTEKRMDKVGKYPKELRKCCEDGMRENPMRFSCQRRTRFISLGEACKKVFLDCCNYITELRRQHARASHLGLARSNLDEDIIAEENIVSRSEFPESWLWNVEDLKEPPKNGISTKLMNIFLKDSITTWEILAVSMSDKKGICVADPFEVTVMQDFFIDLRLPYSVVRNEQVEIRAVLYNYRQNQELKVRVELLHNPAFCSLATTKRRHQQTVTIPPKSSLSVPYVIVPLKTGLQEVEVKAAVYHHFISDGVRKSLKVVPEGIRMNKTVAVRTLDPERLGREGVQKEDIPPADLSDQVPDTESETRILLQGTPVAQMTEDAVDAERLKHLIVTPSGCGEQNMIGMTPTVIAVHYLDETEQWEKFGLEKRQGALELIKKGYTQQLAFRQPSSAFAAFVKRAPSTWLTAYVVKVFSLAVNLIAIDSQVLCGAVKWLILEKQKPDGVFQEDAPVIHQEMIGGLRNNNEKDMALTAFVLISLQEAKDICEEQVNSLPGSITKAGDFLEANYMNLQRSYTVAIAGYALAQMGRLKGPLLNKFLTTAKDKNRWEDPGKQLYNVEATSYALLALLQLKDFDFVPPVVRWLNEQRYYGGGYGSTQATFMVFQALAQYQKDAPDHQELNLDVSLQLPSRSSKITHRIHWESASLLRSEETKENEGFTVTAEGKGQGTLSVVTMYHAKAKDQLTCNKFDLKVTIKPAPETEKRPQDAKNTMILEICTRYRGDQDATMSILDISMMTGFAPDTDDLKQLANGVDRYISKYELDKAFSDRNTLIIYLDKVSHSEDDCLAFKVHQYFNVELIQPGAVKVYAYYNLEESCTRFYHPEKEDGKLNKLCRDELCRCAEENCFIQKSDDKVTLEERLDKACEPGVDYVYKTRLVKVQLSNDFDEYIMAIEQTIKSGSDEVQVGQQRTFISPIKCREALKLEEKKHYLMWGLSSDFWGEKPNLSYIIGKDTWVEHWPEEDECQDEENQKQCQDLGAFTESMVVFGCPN

These are yes or no findings as the source states them, for the method shown. Some entries that bind do so weakly or less than the wild type.

For the test, the target named is Factor H (Sigma) (UniProt P08603). The test can be described thus: ELISA, Factor H coated at 50 to 0.4 pmol/well, C3b at 10 µg/well, detected with polyclonal anti-C3. In general terms: An ELISA detects its analyte on a solid surface through an enzyme-linked reagent.

Consider “human C3b (from UniProt P01024 749-1663; P01024 23-667)”, for which the binding result is recorded as “binds”.
